Data on 34 targets can be found in the supplement of paper PMC10849652.

Sequences of proteins named here, by UniProt entry; tags and fusion partners are left off. A change or cut given only in a name is not applied to a line headed by its entry.
UniProt O43502: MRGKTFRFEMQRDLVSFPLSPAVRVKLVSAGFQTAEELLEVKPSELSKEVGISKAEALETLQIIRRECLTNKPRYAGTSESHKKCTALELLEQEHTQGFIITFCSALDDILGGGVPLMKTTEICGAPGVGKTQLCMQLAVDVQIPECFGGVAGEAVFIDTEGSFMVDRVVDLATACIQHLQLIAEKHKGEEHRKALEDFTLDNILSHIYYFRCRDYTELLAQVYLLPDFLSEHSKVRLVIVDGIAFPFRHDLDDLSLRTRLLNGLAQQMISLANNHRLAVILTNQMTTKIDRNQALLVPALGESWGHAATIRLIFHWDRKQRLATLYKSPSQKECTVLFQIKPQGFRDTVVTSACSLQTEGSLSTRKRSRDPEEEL
UniProt Q8WWW0: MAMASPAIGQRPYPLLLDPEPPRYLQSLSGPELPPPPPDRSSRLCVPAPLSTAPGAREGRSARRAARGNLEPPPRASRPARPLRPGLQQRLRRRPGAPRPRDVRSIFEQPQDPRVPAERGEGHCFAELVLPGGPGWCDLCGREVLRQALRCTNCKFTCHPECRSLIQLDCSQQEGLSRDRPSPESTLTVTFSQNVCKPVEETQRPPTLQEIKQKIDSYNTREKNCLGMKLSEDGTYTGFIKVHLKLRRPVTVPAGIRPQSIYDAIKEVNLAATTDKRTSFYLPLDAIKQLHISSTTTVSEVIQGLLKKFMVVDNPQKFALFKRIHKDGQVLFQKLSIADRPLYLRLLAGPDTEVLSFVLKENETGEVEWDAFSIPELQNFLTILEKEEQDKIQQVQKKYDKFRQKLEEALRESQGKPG
UniProt O60671: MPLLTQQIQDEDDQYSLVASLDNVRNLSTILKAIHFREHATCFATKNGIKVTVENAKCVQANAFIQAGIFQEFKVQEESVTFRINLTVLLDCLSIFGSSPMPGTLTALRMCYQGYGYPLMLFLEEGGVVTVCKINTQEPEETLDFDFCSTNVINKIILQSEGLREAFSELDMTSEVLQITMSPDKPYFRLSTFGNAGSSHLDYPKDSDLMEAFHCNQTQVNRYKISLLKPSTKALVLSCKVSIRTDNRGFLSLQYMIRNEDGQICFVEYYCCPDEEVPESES
UniProt Q15042: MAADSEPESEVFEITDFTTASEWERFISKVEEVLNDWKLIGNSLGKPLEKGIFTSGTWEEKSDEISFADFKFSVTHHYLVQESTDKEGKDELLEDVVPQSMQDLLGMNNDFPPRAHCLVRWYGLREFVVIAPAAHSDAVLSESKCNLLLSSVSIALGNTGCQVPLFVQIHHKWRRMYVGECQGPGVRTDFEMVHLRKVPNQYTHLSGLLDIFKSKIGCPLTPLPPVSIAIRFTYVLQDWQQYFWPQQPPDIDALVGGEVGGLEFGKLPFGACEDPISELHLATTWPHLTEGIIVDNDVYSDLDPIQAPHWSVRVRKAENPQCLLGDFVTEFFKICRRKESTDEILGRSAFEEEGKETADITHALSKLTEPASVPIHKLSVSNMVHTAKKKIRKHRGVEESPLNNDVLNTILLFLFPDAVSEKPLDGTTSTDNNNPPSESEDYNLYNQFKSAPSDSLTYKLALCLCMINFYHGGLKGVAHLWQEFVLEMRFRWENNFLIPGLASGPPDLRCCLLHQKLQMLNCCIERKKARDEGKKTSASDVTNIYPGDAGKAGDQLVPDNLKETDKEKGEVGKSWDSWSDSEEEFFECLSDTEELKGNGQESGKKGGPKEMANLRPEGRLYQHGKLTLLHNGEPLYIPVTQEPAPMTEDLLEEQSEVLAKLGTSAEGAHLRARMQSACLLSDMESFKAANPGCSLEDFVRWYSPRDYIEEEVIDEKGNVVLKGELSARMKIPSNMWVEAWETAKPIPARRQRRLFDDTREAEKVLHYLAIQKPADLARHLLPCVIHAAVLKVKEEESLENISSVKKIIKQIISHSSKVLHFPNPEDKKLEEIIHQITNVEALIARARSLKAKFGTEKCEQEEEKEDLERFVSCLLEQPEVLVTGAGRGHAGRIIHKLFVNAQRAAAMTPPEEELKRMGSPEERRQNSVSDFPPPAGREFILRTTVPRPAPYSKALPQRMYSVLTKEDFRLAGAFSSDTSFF
UniProt Q96PK6: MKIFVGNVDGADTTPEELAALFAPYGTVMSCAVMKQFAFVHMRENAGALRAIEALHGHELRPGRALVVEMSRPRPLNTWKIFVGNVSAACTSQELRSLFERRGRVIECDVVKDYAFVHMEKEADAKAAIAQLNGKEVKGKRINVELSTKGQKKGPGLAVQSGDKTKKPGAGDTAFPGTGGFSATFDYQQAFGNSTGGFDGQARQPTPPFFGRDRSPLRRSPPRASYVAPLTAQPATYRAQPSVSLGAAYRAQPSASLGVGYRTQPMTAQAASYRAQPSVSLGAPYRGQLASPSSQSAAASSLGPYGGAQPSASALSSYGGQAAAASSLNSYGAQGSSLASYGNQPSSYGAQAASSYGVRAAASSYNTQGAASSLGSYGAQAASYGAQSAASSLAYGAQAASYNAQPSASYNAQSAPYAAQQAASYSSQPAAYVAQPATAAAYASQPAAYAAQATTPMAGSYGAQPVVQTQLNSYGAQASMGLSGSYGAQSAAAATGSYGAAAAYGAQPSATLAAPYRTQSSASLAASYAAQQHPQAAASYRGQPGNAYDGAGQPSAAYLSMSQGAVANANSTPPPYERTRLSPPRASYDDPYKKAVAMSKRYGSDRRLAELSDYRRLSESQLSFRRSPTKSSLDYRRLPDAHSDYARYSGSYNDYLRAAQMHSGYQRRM
UniProt Q6VN20, whole entry, looked up: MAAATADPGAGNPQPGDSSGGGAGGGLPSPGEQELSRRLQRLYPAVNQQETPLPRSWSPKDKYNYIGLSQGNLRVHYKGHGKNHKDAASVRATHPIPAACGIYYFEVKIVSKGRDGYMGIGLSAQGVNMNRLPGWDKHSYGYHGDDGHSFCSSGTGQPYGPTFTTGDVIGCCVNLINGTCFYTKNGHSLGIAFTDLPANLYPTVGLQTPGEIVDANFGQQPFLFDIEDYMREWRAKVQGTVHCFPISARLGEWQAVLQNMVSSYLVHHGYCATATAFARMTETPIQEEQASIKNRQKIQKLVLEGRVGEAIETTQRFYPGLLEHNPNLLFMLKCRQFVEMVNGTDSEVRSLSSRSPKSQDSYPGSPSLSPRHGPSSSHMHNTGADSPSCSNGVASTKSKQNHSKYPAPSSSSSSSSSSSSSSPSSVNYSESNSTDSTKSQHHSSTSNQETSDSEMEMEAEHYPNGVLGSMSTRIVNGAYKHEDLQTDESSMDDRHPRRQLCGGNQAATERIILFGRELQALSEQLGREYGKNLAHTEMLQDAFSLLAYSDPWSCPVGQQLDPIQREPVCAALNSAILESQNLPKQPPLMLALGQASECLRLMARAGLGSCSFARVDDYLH
UniProt Q9BTL3: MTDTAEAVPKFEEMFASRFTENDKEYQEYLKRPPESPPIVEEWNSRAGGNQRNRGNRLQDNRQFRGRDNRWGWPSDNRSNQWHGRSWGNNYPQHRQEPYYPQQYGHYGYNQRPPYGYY
UniProt Q9HD47: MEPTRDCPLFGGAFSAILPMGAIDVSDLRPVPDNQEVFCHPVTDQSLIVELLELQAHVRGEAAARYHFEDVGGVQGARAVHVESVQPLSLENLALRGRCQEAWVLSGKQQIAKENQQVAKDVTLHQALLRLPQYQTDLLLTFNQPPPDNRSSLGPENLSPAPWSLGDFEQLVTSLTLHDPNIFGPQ
UniProt P98179: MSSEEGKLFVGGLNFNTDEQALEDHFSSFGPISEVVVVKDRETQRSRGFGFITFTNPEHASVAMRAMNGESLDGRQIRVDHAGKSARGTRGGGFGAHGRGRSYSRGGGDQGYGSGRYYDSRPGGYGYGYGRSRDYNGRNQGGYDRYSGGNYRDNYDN
UniProt Q6GYQ0: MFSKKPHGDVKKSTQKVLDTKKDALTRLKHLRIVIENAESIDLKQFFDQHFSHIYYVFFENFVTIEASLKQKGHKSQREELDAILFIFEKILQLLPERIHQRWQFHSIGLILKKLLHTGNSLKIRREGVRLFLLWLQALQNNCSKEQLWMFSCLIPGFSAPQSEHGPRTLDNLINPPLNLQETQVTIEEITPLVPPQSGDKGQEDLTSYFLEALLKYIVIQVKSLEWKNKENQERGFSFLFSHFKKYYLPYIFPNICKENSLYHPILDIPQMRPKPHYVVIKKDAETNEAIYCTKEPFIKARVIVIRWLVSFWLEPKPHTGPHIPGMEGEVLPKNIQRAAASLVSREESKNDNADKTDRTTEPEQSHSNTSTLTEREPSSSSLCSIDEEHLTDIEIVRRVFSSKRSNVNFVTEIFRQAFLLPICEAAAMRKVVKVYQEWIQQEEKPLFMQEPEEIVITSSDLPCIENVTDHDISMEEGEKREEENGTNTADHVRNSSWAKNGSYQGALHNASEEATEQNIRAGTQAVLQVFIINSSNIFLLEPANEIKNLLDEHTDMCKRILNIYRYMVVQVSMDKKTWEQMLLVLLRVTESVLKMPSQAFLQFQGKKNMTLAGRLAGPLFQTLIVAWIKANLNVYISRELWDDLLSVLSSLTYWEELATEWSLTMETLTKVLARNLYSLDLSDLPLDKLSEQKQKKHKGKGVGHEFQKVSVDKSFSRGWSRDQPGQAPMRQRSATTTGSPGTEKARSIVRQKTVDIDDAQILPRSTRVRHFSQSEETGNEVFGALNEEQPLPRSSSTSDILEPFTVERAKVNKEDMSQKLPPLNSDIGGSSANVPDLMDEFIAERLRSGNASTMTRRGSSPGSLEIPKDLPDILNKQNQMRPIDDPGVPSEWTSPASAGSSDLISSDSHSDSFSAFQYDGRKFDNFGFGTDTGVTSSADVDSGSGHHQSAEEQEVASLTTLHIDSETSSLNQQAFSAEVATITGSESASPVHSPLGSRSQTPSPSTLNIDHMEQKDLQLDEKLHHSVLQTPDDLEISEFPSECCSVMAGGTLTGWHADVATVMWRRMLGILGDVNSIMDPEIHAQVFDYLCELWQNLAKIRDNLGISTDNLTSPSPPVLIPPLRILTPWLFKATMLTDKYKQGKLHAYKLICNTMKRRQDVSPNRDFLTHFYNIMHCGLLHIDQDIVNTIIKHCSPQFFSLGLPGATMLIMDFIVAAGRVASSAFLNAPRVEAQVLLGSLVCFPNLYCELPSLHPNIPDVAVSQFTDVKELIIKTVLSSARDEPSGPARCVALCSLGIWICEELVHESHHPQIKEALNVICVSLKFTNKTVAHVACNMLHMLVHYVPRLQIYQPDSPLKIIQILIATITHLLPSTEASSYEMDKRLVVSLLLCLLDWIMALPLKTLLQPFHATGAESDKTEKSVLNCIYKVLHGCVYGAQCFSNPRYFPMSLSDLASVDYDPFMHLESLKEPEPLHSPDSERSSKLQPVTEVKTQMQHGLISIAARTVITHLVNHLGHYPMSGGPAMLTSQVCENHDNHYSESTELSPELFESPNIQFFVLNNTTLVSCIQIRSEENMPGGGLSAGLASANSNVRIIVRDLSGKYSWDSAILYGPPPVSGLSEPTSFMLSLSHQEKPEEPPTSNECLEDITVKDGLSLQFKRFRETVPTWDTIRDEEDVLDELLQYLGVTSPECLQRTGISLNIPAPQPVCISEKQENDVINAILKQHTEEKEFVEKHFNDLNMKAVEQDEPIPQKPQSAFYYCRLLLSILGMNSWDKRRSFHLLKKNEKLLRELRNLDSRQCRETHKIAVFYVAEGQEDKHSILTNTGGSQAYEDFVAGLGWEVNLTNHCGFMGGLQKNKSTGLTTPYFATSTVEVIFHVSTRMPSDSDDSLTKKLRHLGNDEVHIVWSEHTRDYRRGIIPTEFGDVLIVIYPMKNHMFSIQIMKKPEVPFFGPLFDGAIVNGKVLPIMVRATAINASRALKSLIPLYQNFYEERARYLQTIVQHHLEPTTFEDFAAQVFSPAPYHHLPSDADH
UniProt P53611: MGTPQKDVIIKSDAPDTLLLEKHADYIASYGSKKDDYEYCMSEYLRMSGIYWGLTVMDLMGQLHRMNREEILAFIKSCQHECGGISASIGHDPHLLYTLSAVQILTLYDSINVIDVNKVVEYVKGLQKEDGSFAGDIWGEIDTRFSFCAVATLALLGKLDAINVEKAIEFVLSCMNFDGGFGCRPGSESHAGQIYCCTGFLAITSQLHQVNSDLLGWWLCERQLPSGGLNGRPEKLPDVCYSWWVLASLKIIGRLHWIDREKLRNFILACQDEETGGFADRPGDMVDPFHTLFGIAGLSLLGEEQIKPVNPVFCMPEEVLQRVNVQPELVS
UniProt P78406: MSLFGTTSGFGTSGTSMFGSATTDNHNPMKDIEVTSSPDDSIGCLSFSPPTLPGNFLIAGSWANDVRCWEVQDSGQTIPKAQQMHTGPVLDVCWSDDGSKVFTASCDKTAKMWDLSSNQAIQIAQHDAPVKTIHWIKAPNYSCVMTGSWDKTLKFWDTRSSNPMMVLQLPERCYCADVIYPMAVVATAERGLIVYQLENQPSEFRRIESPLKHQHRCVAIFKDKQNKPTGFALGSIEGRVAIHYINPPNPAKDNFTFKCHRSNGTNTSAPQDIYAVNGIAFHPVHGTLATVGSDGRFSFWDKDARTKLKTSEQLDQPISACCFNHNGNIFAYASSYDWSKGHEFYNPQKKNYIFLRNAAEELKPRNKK

Some of the results follow.

Compound in this experiment: c1cn2cc(-c3ccc4cn[nH]c4c3)nc(Nc3ccc(N4CCOCC4)cc3)c2n1 [entospletinib]
As to the kind of experiment: log2 fold change, soluble protein after heating vs DMSO (PISA); higher = thermal stabilisation; K562 cells, 10 uM, 30 min; active = over 0.2 and 3.5 SD of the protein, either way, in both replicates (recomputed). The gist of the method: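 K562 cells (2×10^6 cells/mL) were treated with 10 μM compound for 30 min, and aliquots were heated for 3 min over 48°C-58°C. Pooled aliquots were extracted in PBS with 0.5% NP-40 at 4°C, and the supernatant after 21,000xg for 90 min was measured by TMTpro 16plex LC-MS/MS with channel sums equalised. Reported thermal stability, relative to control samples and from duplicates, is a log2 fold change.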
Take RACGAP1 (UniProt Q9H0H5): the log2 fold change is inactive: -0.01. Turning to RAD51C (UniProt O43502), the log2 fold change is inactive: 0.072.

Regarding RBFA (UniProt Q8N0V3), the log2 fold change is inactive: 0.014.

Regarding RBBP5 isoform 2 (UniProt Q15291), the log2 fold change was inactive: -0.044. The figure for RABL3 (UniProt Q5HYI8) is inactive: -0.024; for RAB21 (UniProt Q9UL25) it is inactive: 0.01; for RASSF5 (UniProt Q8WWW0) it is inactive: 0.014. The figure for RAB22A (UniProt Q9UL26) is inactive: -0.015; for RACK1 (UniProt D6RHH4) it is inactive: 0.296; for RAD1 (UniProt O60671) it is inactive: 0.035. Turning to RAB3GAP1 (UniProt Q15042), the log2 fold change is inactive: 0.068. The figure for RBFOX2 isoform 8 (UniProt O43251) is inactive: 0.088; for RBM14 (UniProt Q96PK6) it is inactive: 0.146. The figure for RAB1A (UniProt P62820) is inactive: 0.005; for RAPGEF6 isoform 4 (UniProt Q8TEU7) it is inactive: 0.146. Consider RANBP10 (UniProt Q6VN20), for which the log2 fold change was inactive: 0.017. The figure for RBBP7 isoform 2 (UniProt Q16576) is inactive: -0.015. The figure for RBBP4 isoform 2 (UniProt Q09028) is inactive: -0.097; for RAB5A (UniProt P20339) it is inactive: -0.04.

On to RANBP17 (UniProt Q9H2T7), for which the log2 fold change is inactive: -0.089. Regarding R3HDM4 (UniProt Q96D70), the log2 fold change is inactive: -0.053.

As to RAMAC (UniProt Q9BTL3), the log2 fold change is inactive: 0.079.

In the case of RABGAP1 (UniProt Q9Y3P9), the log2 fold change is inactive: 0.007. The figure for RANGRF (UniProt Q9HD47) is inactive: 0.062; for RAD21 (UniProt O60216) it is inactive: -0.006; for RBM3 (UniProt P98179) it is inactive: 0.029.

Consider RAB18 (UniProt H0Y6T8), for which the log2 fold change was inactive: 0.013.

Take RAD23B (UniProt P54727): the log2 fold change is inactive: -0.021. As to RACK1 (UniProt D6RF23), the log2 fold change is inactive: -0.054. As to RALGAPA1 isoform 6 (UniProt Q6GYQ0), the log2 fold change is inactive: 0.238. The figure for RABGGTB (UniProt P53611) is inactive: 0.009; for RAE1 (UniProt P78406) it is inactive: 0.006; for RASA2 (UniProt Q15283) it is inactive: 0.173.

Consider RANBP9 (UniProt Q96S59), for which the log2 fold change is inactive: 0.023.
